Laboratory results as given in patent publication US5693502.

Chains of the proteins cited; added tags and fusions are not shown.
UniProt P52028, whole entry: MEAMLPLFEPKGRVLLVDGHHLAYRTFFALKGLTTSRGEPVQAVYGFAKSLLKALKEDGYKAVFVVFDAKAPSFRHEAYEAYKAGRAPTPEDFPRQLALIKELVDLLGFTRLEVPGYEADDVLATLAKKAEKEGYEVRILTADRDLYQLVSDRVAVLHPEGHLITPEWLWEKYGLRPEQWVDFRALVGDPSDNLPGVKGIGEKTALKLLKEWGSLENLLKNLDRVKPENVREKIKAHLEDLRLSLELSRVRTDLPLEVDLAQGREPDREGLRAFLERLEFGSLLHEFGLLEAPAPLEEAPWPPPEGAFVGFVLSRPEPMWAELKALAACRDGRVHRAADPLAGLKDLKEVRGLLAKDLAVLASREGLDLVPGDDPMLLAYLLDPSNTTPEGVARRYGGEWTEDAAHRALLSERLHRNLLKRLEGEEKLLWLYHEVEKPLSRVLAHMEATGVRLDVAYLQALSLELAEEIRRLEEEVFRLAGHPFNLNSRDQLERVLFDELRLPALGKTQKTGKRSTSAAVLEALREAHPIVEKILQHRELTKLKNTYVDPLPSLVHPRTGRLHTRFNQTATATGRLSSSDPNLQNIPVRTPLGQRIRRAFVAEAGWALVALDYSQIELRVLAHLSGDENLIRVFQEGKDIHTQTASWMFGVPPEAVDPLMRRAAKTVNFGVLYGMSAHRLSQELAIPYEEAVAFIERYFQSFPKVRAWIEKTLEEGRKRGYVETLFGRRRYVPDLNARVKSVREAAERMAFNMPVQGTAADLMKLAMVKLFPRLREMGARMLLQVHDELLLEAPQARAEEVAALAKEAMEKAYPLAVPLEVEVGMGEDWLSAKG
UniProt P19821, whole entry: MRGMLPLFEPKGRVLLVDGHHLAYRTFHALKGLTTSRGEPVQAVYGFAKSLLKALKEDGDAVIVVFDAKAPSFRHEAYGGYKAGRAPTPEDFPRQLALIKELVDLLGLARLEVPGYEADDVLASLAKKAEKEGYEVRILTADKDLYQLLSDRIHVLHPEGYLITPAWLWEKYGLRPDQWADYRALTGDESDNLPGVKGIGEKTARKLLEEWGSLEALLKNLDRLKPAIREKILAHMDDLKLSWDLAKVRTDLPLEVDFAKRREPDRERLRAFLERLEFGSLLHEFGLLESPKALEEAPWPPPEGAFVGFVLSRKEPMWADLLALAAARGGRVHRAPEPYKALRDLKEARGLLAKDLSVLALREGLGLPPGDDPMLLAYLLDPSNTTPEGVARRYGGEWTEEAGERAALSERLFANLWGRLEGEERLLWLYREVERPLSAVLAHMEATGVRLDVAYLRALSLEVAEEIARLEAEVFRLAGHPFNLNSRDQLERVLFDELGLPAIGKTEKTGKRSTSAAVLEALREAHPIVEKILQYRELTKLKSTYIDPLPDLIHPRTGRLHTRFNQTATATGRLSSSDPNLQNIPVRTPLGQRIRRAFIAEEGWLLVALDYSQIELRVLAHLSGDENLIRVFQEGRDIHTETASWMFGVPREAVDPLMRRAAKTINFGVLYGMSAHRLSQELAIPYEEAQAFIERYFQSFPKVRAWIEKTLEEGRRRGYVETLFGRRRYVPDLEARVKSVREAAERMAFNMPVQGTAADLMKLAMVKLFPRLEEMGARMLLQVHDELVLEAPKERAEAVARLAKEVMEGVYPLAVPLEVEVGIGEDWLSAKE

Experiments:
[1] = target: Tth DNA polymerase (rTth) (Thermus thermophilus) (UniProt P52028); assay: activity assay; conditions: hairpin template extended by polymerase; purified recombinant protein; protein details: Roche Molecular Systems, Mr 94 kDa; label: 5'-32P; folded or branched DNA
[2] = target: Taq DNA polymerase (rTaq) (Thermus aquaticus) (UniProt P19821); assay: activity assay; conditions: hairpin template extended by polymerase; standard PCR buffer; purified recombinant protein; protein details: Roche Molecular Systems, Mr 94 kDa; label: 5'-32P; folded or branched DNA

With “ATGCCTAAGTTTCGAACGCGGCTAGCCAGCTTTTGCTGGCTAGCCGCGT [DNA-HP hairpin template]” the “activity on this sequence” value [1] was “active” and the “activity on this sequence” value [2] was “active”.
